Assay [1] concerns the target dopamine D2 receptor, endogenous in rat striatum (rat (endogenous in Sprague-Dawley rat brain)) (UniProt P61169). Put plainly: proximity ligation; in situ PLA on free-floating formalin-fixed rat brain sections (30 um, Bregma 1.0 mm) with anti-D2R and anti-A2AR primary antibodies; rats after cocaine self-administration with CGS 21680, intra-accumbal vehicle or synthTM5 peptide; nucleus accumbens core and shell, caudate putamen.

By UniProt entry, the sequences of proteins in these tests, tags left out. Where a name states a change or a piece, a line headed by the entry shows the natural chain unless it says otherwise.
UniProt P61169: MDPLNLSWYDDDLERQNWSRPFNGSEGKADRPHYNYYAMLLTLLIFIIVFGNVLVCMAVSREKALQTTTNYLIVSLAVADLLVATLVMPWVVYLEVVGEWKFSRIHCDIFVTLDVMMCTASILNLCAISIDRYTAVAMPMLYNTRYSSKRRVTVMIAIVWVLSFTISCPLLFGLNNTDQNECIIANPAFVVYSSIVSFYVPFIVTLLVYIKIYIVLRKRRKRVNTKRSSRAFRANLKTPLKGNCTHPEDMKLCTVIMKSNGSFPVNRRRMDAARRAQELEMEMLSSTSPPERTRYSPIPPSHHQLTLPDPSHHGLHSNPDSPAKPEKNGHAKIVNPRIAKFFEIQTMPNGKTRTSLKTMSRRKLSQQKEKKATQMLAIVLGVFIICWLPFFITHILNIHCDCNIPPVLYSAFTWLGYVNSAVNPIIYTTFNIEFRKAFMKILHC
UniProt P14416: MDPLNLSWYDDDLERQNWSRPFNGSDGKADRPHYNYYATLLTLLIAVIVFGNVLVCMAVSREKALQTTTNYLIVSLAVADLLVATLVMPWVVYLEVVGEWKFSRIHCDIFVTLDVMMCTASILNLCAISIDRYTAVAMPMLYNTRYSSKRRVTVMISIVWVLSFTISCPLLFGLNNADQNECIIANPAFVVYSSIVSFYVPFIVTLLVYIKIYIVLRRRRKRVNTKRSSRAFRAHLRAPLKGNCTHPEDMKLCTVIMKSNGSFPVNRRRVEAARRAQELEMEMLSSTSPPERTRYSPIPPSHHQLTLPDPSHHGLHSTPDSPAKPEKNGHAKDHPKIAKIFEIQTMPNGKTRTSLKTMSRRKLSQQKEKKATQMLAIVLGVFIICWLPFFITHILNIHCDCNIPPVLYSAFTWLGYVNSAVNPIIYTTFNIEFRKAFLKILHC

Assay [2] deals with dopamine D2 receptor fused to Renilla luciferase (D2R^Rluc) (human) (UniProt P14416). Put plainly: FRET or BRET; BRET^1 competition in HEK293T cells co-expressing D2R^Rluc and A2AR^YFP; synthetic TM peptide added at rising concentrations for 2 h at 37 °C before reading; only the binder purified.
Assay [3] addresses dopamine D2 receptor, endogenous in rat striatum (rat (endogenous in Sprague-Dawley rat brain)) (UniProt P61169). As to the kind of experiment: proximity ligation; in situ PLA of A2AR-D2R on rat brain sections after microinjection of synthTM5 peptide (0.1 uM, 0.5 ul each side, 22 h and 20 min before the last session) into the nucleus accumbens; only the binder purified.

Results are given in words; binding and its absence hold for the method and conditions named. In cells and extracts the contact can be indirect. Some results given as binding are weak or reduced against the parent protein; the word gives no strength.

As to “adenosine A2A receptor, endogenous in rat striatum (from UniProt P30543 1-410)”, the binding result in assay [1] is given as “binds”. For KKKMNYMVYYNFFAFVLLPLLLMLAIYLKKK [rat A2AR synthetic TM5 peptide (synthTM5)], the binding result in assay [2] and in assay [3] was “binds” throughout.

Values taken from PMC6061166.
